Reference: article PMC8566473
These are yes or no findings as the source states them, for the method shown. Binding seen in cells or lysates may run through a third protein. Here binding means that the protein was enriched with, or labelled near, the bait; the list need not be complete.

Sequences of proteins named here, by UniProt entry; tags and fusion partners are left off.
UniProt P48431: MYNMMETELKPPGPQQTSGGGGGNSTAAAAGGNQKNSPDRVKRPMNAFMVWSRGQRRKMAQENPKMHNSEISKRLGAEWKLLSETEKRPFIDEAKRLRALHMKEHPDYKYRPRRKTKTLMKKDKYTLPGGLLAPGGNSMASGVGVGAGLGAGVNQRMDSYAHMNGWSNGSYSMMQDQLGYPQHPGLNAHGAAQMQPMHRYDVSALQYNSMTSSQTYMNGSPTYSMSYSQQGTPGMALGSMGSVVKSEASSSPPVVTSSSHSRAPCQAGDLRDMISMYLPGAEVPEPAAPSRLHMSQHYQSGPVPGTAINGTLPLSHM

Target: SOX2 (SRY (sex-determining region Y)-box 2), endogenous in GSCs (human) (UniProt P48431)
Assay: affinity purification with mass spectrometry; IP of endogenous SOX2 with goat anti-SOX2 or control goat IgG from 1% NP-40 lysates of GSC line B36; protein G-sepharose, 7 washes; SDS-PAGE, in-gel trypsin digestion, LC-MS/MS

B1: KLHL22 (protein, UniProt Q53GT1 1-634)
chain: MAEEQEFTQLCKLPAQPSHPHCVNNTYRSAQHSQALLRGLLALRDSGILFDVVLVVEGRHIEAHRILLAASCDYFRGMFAGGLKEMEQEEVLIHGVSYNAMCQILHFIYTSELELSLSNVQETLVAACQLQIPEIIHFCCDFLMSWVDEENILDVYRLAELFDLSRLTEQLDTYILKNFVAFSRTDKYRQLPLEKVYSLLSSNRLEVSCETEVYEGALLYHYSLEQVQADQISLHEPPKLLETVRFPLMEAEVLQRLHDKLDPSPLRDTVASALMYHRNESLQPSLQSPQTELRSDFQCVVGFGGIHSTPSTVLSDQAKYLNPLLGEWKHFTASLAPRMSNQGIAVLNNFVYLIGGDNNVQGFRAESRCWRYDPRHNRWFQIQSLQQEHADLSVCVVGRYIYAVAGRDYHNDLNAVERYDPATNSWAYVAPLKREVYAHAGATLEGKMYITCGRRGEDYLKETHCYDPGSNTWHTLADGPVRRAWHGMATLLNKLYVIGGSNNDAGYRRDVHQVACYSCTSGQWSSVCPLPAGHGEPGIAVLDNRIYVLGGRSHNRGSRTGYVHIYDVEKDCWEEGPQLDNSISGLAACVLTLPRSLLLEPPRGTPDRSQADPDFASEVMSVSDWEEFDNSSED
Q: B1 was tested. Which binding did it give?
A: The binding was “binds”.
